Measured values: doi:10.1101/2020.03.23.004119
These are yes or no findings as the source states them, for the method shown. For some assays here: In cells and extracts the contact can be indirect. Some entries that bind do so weakly or less than the wild type.

By UniProt entry, the sequences of proteins in these tests, tags left out.
UniProt Q16877, whole entry: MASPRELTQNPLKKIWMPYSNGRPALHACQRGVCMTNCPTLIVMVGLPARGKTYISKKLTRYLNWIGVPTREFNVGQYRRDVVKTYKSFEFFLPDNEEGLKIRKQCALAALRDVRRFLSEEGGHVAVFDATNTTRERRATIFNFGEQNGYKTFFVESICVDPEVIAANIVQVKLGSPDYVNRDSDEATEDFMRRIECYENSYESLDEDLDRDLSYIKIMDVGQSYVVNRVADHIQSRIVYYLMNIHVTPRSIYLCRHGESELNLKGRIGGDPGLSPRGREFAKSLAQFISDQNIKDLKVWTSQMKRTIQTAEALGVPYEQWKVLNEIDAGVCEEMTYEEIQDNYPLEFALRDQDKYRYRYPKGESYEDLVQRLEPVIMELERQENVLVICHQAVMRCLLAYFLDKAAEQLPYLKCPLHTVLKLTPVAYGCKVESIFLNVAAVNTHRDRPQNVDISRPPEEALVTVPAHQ
UniProt O60725, whole entry: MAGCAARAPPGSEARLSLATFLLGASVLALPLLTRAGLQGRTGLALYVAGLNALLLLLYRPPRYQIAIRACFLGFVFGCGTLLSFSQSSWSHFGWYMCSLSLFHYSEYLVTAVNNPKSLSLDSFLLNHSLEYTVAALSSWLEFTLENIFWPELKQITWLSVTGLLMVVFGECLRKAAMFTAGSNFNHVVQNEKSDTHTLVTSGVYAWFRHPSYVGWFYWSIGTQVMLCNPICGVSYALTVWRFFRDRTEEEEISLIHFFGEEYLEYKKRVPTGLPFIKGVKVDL

Legend:
[1] = target: FLAG-tagged human PFKFB4 (human) (UniProt Q16877); assay: co-IP
[2] = target: hPFKFB4 mammalian two-hybrid fusion (pBind-PFKFB4 and pAct-PFKFB4) (human) (UniProt Q16877); assay: two-hybrid

binding [1] | binding [2] | Substance
binds |  | ICMT tagged with V5 (from UniProt O60725 1-284) (enzyme)
 | binds | hICMT fused to VP16 activation domain (pAct-ICMT) (from UniProt O60725 1-284) (enzyme)
